# No constants are given. Whether binding was seen depends on the method and setting. Some results given as binding are weak or reduced against the parent protein; the word gives no strength.
# Target: BadA head fragment (Trp-ring domain, GIN domain, neck and first stalk segment; residues 375 to 536) (Bartonella henselae) (UniProt Q5MWV9)
# Assay: crystal structure; hanging drop at 291 K, space group P1, one trimer in the asymmetric unit, 1.13 Å; both purified
binder,measurement,value
"BadA head fragment (Trp-ring domain, GIN domain, neck and first stalk segment; residues 375 to 536) (domain or fragment, Residues 385-498 are resolved in the crystal; also called BadA construct; BadA fragment; source: recombinantly expressed, purified as described [11]) KALRGMISEKGGWNLTVNNDNNTVVSSGGALDLSSGSKNLKIVKDGKKNNVTFDVARDLTLKSIKLDGVTLNETGLFIANGPQITASGINAGSQKITGVAEGTDANDAVNFGQLKKIETEVKEQVAASGFVKQDSDTKYLTIGKDTDGDTINIANNKSDKRT",binding,binds

# From article PMC2483945, “Structure of the Head of the Bartonella Adhesin BadA” (PLoS Pathogens, 2008)
